From US20100184818A1, “PHOTOSENSITIZERS FOR TARGETED PHOTODYNAMIC THERAPY” (THE GENERAL HOSPITAL CORPORATION, priority 2007, published 2010)

Experiment: ESR spin trapping (DMPO) of superoxide under white light
Conditions: for Production of superoxide (DMPO-OOH ESR signal): 35 μM, 1 mM NADH, white light; for Production of superoxide (DMPO-OOH ESR signal) / Production of superoxide in presence of histidine compared with NADH: 1:3 H2O:DMSO; for Production of superoxide in presence of histidine compared with NADH: 2 mM histidine

SMILES	Production of superoxide (DMPO-OOH ESR signal)	Production of superoxide in presence of histidine compared with NADH	Production of superoxide, BF6 compared with BF4 (in presence of NADH)
C[N+]1(C)CC2c3c4c5c6c3c3c(c7ccc8c9ccc%10c%11c%12c%13c%14c(c6c6c3c7c8c(c9c%10%13)c%146)=C3C5C(C=C4)C(C=C%11)C3%12)C2C1.[I-] (centres unmarked) [CI1]	substantial amounts of superoxide	sharply lower (at least ten times)	
C[N+]1(C)Cc2c3c4c5c6c7c8c9c(c%10c8c8c(c%11c%12c(c%13c%14ccc%15c(c2C1)c4c1c%15c%14c2c%13c%11c8c7c2c61)C[N+](C)(C)C%12)C1C[N+](C)(C)CC%101)C=CC3C95.[I-].[I-].[I-] (centres unmarked) [CI3]	substantial amounts of superoxide	sharply lower (at least ten times)	more superoxide than BF4
